For four molecules, binding results are on record in PMC11171731.

Protein sequences, listed by entry. Tags and fused reporters are not part of them. Lines headed by an entry give the natural chain unless they say otherwise; changes in a name come on top.
UniProt Q01970: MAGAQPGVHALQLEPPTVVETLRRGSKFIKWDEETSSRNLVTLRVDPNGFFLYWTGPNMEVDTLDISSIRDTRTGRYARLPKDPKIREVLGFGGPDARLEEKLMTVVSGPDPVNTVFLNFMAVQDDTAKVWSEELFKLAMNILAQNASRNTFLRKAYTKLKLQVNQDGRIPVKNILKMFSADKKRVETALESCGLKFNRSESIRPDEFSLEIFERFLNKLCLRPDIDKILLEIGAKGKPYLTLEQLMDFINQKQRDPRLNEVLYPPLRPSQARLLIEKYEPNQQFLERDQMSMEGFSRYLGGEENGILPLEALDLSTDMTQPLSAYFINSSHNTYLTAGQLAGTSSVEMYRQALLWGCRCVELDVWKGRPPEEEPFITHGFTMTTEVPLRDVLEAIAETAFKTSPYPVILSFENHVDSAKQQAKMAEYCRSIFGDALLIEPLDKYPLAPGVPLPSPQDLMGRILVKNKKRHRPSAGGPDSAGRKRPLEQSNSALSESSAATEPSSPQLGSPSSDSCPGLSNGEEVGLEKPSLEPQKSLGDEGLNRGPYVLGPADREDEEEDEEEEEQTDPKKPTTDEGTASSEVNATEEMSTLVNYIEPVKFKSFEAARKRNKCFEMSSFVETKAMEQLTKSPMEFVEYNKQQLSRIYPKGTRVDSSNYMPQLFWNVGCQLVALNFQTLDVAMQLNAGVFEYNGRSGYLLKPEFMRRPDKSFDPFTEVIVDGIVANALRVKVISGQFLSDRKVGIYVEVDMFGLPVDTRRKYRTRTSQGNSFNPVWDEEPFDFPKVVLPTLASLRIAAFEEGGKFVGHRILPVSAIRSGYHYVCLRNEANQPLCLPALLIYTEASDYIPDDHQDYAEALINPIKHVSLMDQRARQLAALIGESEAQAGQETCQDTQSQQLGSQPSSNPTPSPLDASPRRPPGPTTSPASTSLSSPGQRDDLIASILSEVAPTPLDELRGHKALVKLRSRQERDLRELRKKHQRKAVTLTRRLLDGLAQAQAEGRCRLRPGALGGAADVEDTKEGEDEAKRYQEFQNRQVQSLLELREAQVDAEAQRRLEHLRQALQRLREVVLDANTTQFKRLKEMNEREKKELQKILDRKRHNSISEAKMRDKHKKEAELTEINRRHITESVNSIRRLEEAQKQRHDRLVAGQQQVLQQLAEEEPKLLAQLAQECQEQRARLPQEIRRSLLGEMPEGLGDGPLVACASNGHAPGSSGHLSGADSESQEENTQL
UniProt O14641: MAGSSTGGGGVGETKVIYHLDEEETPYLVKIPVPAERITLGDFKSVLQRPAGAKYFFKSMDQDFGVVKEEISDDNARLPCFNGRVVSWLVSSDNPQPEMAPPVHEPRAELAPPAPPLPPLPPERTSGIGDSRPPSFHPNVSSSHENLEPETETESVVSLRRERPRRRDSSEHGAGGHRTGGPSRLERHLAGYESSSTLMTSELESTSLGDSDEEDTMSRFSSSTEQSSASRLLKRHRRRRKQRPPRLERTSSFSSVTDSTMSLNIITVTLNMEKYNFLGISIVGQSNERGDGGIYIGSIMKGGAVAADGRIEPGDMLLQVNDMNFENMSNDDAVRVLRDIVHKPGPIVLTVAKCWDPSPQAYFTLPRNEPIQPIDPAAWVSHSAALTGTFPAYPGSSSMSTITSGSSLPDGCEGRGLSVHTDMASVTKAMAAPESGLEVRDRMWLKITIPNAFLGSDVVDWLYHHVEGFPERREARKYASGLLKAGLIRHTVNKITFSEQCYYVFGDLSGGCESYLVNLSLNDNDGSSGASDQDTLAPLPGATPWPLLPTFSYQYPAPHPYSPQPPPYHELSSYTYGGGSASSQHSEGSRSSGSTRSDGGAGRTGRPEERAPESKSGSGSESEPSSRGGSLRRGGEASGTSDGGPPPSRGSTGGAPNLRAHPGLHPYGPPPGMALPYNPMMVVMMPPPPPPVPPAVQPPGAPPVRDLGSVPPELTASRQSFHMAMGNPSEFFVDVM
UniProt P49841: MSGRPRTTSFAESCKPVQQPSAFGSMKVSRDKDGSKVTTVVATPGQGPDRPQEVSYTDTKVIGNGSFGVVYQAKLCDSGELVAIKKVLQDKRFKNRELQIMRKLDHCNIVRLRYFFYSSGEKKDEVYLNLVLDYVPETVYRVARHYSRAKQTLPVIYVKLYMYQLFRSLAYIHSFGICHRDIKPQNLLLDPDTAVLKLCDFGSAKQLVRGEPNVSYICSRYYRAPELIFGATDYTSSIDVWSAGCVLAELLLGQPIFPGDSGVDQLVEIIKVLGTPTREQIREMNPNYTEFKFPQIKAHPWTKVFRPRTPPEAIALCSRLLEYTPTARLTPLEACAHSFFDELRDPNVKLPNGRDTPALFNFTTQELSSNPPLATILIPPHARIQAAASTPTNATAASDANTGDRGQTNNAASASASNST
UniProt P35222: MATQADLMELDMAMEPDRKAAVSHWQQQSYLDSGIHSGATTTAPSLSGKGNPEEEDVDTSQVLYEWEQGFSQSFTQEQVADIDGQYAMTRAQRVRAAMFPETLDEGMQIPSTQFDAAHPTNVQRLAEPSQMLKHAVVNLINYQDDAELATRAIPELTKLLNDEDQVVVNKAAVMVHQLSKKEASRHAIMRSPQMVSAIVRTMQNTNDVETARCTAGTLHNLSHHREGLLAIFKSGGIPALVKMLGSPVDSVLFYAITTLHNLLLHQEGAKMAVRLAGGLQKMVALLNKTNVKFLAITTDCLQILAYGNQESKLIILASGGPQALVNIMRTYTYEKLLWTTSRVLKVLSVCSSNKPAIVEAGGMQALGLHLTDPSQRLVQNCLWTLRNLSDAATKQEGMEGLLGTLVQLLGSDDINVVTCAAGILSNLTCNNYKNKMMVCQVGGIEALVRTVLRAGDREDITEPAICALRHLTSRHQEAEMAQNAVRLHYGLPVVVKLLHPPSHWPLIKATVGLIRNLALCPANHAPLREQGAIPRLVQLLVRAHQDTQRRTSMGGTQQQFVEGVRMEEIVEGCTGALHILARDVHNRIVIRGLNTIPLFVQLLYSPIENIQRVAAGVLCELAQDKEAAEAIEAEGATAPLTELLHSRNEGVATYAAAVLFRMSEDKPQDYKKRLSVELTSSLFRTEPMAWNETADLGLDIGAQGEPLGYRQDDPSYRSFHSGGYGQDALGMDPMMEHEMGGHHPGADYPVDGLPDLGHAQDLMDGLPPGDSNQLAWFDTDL

Results are given in words; binding and its absence hold for the method and conditions named. Binding seen in cells or lysates may run through a third protein. Binding can be weak; no strength is given.

Assay [1] concerns the target GST fusion of the split catalytic domains of PLC-β3 (UniProt Q01970). Briefly: pull-down; GST fusions of PLC-β3 domains as bait; source of the prey proteins and conditions not told.
The target in assay [2] is GST fusion of the PH-EF domain of PLC-β3 (UniProt Q01970). The description is as above.

For the molecule Dvl2 (from UniProt O14641 1-736), the binding result in assay [1] and in assay [2] was “binds” in each case.
For “GSK3β (from UniProt P49841 1-420) (enzyme)”, the binding result in assay [1] and in assay [2] was “binds” in each case.
For the molecule β-catenin (from UniProt P35222 1-781), in assay [2], the binding result is reported as “binds”.

B1: Lgr5 (receptor, UniProt O75473 22-907)
chain: GSSPRSGVLLRGCPTHCHCEPDGRMLLRVDCSDLGLSELPSNLSVFTSYLDLSMNNISQLLPNPLPSLRFLEELRLAGNALTYIPKGAFTGLYSLKVLMLQNNQLRHVPTEALQNLRSLQSLRLDANHISYVPPSCFSGLHSLRHLWLDDNALTEIPVQAFRSLSALQAMTLALNKIHHIPDYAFGNLSSLVVLHLHNNRIHSLGKKCFDGLHSLETLDLNYNNLDEFPTAIRTLSNLKELGFHSNNIRSIPEKAFVGNPSLITIHFYDNPIQFVGRSAFQHLPELRTLTLNGASQITEFPDLTGTANLESLTLTGAQISSLPQTVCNQLPNLQVLDLSYNLLEDLPSFSVCQKLQKIDLRHNEIYEIKVDTFQQLLSLRSLNLAWNKIAIIHPNAFSTLPSLIKLDLSSNLLSSFPITGLHGLTHLKLTGNHALQSLISSENFPELKVIEMPYAYQCCAFGVCENAYKISNQWNKGDNSSMDDLHKKDAGMFQAQDERDLEDFLLDFEEDLKALHSVQCSPSPGPFKPCEHLLDGWLIRIGVWTIAVLALTCNALVTSTVFRSPLYISPIKLLIGVIAAVNMLTGVSSAVLAGVDAFTFGSFARHGAWWENGVGCHVIGFLSIFASESSVFLLTLAALERGFSVKYSAKFETKAPFSSLKVIILLCALLALTMAAVPLLGGSKYGASPLCLPLPFGEPSTMGYMVALILLNSLCFLMMTIAYTKLYCNLDKGDLENIWDCSMVKHIALLLFTNCILNCPVAFLSFSSLINLTFISPEVIKFILLVVVPLPACLNPLLYILFNPHFKEDLVSLRKQTYVWTRSKHPSLMSINSDDVEKQSCDSTQALVTFTSSSITYDLPPSSVPSPAYPVTESCHLSSVAFVPCL
In the case of B1, in assay [2], the binding entry is recorded as “binds”.
